The values that follow come from doi:10.1101/681007 (bioRxiv, 2019).

The chains behind the UniProt entries cited, without tags or fusion partners. Where a name states a change or a piece, a line headed by the entry shows the natural chain unless it says otherwise. Residues count along the entry.
UniProt P48730, residues 1-294: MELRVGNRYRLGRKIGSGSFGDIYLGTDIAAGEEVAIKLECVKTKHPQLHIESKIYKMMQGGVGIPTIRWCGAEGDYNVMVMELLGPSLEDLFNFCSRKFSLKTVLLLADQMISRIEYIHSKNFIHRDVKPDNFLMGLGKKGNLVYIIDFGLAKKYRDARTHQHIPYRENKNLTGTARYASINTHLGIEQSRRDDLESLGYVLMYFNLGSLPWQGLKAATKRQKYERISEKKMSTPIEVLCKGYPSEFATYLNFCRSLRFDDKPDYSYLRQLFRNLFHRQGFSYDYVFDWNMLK

The assay deals with kinase domain of CK1δ (aa. 1-294) (UniProt P48730). Nature of the assay: crystal structure.

No constants are given. Whether binding was seen depends on the method and setting. Some results given as binding are weak or reduced against the parent protein; the word gives no strength.

As to YTPSSASTVSVGSSET (phosphoserine at S582 and S585 (4th and 7th residues of the printed letters)) [PAD-2P (p63 phosphorylation activation domain peptide, phosphorylated on S582 and S585)], the binding result is reported as “binds”.

Regarding YTPSSASTVSVGSSET (phosphoserine at S582 (4th residue of the printed letters)) [PAD-1P (p63 phosphorylation activation domain peptide, phosphorylated on S582)], the binding entry is “binds”.
